Results as given in patent US20050084876A1 (APOXIS SA FORMERLY APOTECH RESEARCH AND DEVELOPMENT LTD A …, published 2005).
No constants are given. Whether binding was seen depends on the method and setting. Some results given as binding are weak or reduced against the parent protein; the word gives no strength. For some of these results: Where a sequence is shown, tags or fusion partners need not be part of it.

B1: adaptor protein FADD (human) (other, UniProt Q13158 1-208, looked up)
chain: MDPFLVLLHSVSSSLSSSELTELKFLCLGRVGKRKLERVQSGLDLFSMLLEQNDLEPGHTELLRELLASLRRHDLLRRVDDFEAGAAAGAAPGEEDLCAAFNVICDNVGKDWRRLARQLKVSDTKIDSIEDRYPRNLTERVRESLRIWKNTEKENATVAHLVGALRSCQMNLVADLVQEVQQARDLQNRSGAMSPMSWNSDASTSEAS
notes: also called CAP1

Legend:
[1] = target: T1, myc-marked cytoplasmic protein segment of the CD95 (Fas) death receptor (murine) (UniProt P25446); test: co-transfection in 293T cells, co-immune precipitation
T1 sequence (looked up): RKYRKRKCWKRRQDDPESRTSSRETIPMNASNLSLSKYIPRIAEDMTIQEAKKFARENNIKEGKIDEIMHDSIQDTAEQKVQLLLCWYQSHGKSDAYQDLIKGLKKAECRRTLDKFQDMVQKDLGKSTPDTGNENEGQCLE

[2] = target: T1, myc-marked cytoplasmic protein segment of the CD95 (Fas) death receptor (murine); test: anti-Flag agarose immune precipitation, Western blot, co-transfected 293T cells
[3] = target: T1, myc-marked cytoplasmic protein segment of the CD95 (Fas) death receptor (murine); test: co-transfection in 293T cells, co-immune precipitation, Western blot
[4] = target: T2, CD95 (APO-1/Fas) death receptor of human Raji B cells, stimulated with agonistic anti-APO-1 antibody (human), P25445; test: anti-APO-1 immune precipitation from 35S-marked Raji clones, 2D gel electrophoresis; conditions: remark: other sources report otherwise
T2 chain: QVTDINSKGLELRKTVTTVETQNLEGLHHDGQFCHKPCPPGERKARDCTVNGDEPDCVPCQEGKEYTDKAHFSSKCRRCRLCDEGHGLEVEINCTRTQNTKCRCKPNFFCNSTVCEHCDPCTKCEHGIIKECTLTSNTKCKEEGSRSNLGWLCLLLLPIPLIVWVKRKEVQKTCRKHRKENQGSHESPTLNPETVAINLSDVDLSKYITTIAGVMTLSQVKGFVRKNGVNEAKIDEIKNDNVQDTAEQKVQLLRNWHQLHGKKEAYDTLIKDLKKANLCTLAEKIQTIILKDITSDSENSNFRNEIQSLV

Molecule	binding [1]	binding [2]	binding [3]	binding [4]
adaptor protein FADD (human) (from UniProt Q13158 1-208)	binds	binds	binds	
B1				binds
